Experimental data taken from patent US6451848B1 (Nastech Pharmaceutical Company, Inc., priority 1999, dated 2002).
Read-outs that look alike come from different tables or passages of the source.

Key:
clinical = conditions: human, plasma, im, Average TMAX (time for the average peak concentration), n = 10
[1] = human, n = 10
[2] = 2.5 mg I.M., listed as 1, Sulfate
[3] = 5 mg I.M., listed as 2, Sulfate

CN1CC[C@]23c4c5ccc(O)c4O[C@H]2[C@@H](O)C=C[C@H]3[C@H]1C5.O=S(=O)(O)O [Morphine Sulfate]
Tmax (clinical; 2.5 mg, 2.5 mg I.M.): ~10 min
Tmax (clinical; 5 mg, 5 mg I.M.): ~8 min
Average CMAX (average peak plasma concentration of free morphine) ([1]; 2.5 mg I.M., Sulfate): approximately 10.7 ng/ml
Average CMAX (average peak plasma concentration of free morphine) [1, 2]: 10.7 ng/mL
Average TMAX (time for the average peak concentration) [1, 2]: 10 min
Average CMAX (average peak plasma concentration of free morphine) ([1]; 5 mg I.M., Sulfate): approximately 10.7 ng/ml
Average CMAX (average peak plasma concentration of free morphine) [1, 3]: 26.4 ng/mL
Average TMAX (time for the average peak concentration) [1, 3]: 8 min
